Data from patent publication WO2009080764A2 (dated 2009).
These are yes or no findings as the source states them, for the method shown. Some entries that bind do so weakly or less than the wild type.

Protein sequences, listed by entry. Tags and fused reporters are not part of them. Lines headed by an entry give the natural chain unless they say otherwise; changes in a name come on top.
UniProt P55899: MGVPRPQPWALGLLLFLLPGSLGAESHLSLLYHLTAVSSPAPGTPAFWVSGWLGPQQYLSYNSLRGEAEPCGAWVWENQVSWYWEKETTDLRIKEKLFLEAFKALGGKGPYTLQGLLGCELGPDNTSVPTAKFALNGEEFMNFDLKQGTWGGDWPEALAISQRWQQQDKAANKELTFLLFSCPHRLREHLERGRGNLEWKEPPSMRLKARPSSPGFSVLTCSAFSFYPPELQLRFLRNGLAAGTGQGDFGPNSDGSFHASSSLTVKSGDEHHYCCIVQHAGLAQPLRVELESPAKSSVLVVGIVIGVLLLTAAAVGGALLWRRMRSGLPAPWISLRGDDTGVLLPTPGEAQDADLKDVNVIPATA
UniProt P61769: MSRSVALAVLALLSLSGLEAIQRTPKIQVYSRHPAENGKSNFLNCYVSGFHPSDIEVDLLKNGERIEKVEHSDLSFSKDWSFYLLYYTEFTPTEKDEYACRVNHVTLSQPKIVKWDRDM

Biological target: shFcRn-GST (GST-fused soluble human FcRn, heterodimeric) (human) (UniProt P55899+P61769)
Assay: SPR, 25-50 nM over immobilized shFcRn-GST, pH 6.0 and pH 7.4

B1: 218-H4_20GS_218-H4 (bivalent Nb 218-H4) (VHH)
chain: EVQLVESGGALVQAGGSLRLSCVASGRTFNSIGMGWFRQAPGKERDFIGGITWDGRDTYYTDSVKGRFTISRDNAKNTVYLQMNSLKPWDTAVYYCAANRDPWIATSYQDYAYWGQGTQVTVSSGGGGSGGGGSGGGGSGGGGSEVQLVESGGALVQAGGSLRLSCVASGRTFNSIGMGWFRQAPGKERDFIGGITWDGRDTYYTDSVKGRFTISRDNAKNTVYLQMNSLKPWDTAVYYCAANRDPWIATSYQDYAYWGQGTQVTVSS
In the case of B1, the binding is reported as “binds”.
